No constants are given. Whether binding was seen depends on the method and setting. In cells and extracts the contact can be indirect. Some results given as binding are weak or reduced against the parent protein; the word gives no strength. For part of these data: Sequences can lack the tags named with a protein.
T1: Flag-TRAF6 (mouse) (UniProt P70196)
T1 sequence: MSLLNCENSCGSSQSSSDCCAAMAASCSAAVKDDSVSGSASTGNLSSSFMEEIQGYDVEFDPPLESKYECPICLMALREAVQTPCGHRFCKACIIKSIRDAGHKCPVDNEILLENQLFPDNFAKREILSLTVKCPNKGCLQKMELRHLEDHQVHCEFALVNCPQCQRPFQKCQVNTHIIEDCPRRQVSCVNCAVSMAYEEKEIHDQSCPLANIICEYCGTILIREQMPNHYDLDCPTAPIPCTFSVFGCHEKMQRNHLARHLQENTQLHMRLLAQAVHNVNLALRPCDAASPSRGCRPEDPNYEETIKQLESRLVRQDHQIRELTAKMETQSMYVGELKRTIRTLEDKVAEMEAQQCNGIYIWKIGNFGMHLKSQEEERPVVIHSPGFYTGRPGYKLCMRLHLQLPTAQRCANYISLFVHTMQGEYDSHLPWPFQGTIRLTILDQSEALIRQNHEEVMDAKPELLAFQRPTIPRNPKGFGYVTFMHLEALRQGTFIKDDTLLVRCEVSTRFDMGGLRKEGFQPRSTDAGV

Sequences of proteins named here, by UniProt entry; tags and fusion partners are left off. A change or cut given only in a name is not applied to a line headed by its entry. Residues count along the entry.
UniProt P70191: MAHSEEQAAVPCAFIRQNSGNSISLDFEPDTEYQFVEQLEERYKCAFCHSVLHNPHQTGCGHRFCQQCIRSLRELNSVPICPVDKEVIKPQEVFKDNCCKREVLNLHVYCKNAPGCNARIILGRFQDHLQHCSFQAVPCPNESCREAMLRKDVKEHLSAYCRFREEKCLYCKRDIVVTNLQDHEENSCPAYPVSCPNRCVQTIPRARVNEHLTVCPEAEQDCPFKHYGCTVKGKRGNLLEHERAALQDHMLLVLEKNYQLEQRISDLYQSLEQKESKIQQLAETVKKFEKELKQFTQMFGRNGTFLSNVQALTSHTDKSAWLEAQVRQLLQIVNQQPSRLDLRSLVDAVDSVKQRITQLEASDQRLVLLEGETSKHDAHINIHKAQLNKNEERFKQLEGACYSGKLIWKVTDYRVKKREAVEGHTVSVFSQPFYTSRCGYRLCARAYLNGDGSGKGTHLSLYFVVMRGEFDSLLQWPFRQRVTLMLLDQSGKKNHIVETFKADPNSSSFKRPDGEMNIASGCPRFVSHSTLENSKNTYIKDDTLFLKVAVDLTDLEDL
UniProt Q9Y6K9, residues 86-419: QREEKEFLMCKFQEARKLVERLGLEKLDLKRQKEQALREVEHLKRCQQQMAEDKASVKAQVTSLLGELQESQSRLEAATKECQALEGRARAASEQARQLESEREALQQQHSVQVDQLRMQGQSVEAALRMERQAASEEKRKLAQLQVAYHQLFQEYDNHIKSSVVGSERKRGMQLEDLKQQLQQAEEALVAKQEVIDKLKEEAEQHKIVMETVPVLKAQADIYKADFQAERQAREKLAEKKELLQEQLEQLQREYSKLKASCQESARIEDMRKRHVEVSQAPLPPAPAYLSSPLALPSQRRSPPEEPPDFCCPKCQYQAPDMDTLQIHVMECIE
UniProt Q7Z434: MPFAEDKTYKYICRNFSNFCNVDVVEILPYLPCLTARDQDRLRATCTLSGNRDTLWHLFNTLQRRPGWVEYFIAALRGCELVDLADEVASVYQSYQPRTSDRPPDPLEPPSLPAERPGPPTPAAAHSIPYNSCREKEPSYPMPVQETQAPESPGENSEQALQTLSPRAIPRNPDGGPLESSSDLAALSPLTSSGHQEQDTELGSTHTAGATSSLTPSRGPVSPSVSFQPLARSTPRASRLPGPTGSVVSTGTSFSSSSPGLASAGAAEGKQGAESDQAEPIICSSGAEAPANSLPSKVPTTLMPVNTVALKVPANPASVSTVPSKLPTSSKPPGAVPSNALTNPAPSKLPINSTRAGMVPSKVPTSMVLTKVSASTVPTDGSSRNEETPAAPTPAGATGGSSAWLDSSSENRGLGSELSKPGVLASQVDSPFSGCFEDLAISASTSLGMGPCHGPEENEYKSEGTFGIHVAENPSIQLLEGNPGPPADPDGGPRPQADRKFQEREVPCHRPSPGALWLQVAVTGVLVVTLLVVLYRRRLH

T2: Flag-TRAF2 (mouse) (UniProt P39429)
T2 sequence: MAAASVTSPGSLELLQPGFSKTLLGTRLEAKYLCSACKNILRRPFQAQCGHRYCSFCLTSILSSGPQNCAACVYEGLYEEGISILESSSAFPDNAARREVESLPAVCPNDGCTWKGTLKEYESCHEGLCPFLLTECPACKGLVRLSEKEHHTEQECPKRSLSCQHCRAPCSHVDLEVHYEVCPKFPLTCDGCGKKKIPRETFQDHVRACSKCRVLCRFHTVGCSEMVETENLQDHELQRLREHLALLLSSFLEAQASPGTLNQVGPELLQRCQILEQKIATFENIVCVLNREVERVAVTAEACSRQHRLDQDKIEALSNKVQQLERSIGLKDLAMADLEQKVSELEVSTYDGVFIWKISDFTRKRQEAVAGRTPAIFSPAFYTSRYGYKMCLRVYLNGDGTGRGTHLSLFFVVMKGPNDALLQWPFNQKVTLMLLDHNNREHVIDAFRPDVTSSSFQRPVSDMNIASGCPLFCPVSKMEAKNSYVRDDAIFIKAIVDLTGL

B1: TANK (protein, UniProt P70347 1-448)
chain: MSLKRHSLRRNACHLETRAGIPTILYSDATGQRGMDKNIGEQLNRAYEAFRQACMDRDSAVRELQQKQTENYEQRIREQQEQLSFQQNLIDRLKSQLLLVDSSRDNSYGYVPLLEDSDRRKNNLTLDEPHDKVKLGTLRDKQSKVRRQEVSSGKESAKGLNIPLHHERDNIEKTFWDLKEEFHRICLLAKAQKDHLSKLNIPDIATDTQCSVPIQCTDKTEKQEALFKPQAKDDINRGMSCVTAVTPRGLGRDEEDTSFESLSKFNVKFPPMDNDSIFLHSTPEAPSILAPATPETVCQDRFNMEVRDNPGNFVKTEETLFEIQGIDPITSAIQNLKTTDKTNPSNLRATCLPAGDHNVFYVNTFPLQDPPDAPFPSLDSPGKAVRGPQQPFWKPFLNQDTDLVVPSDSDSELLKPLVCEFCQELFPPSITSRGDFLRHLNTHFNGET

Key:
[1] = target: T1, Flag-TRAF6 (mouse); assay: co-IP
[2] = target: T2, Flag-TRAF2 (mouse); assay: co-IP
[3] = target: Flag-TRAF5 (mouse) (UniProt P70191); assay: co-IP
[4] = target: Flag-NEMOΔN (NEMO without its N-terminal IKK-binding region, 86-419) (human) (UniProt Q9Y6K9); assay: co-IP; 100,000×g supernatants of Nemo−/− MEFs and of MEFs stably expressing Flag-NEMOΔN mixed 5:1; M2 agarose at 4°C overnight; washed with 10 mM Tris-HCl pH 7.5, 1 M NaCl, 0.1% CHAPS; eluted with Flag peptide; immunoblotting

| Molecule | binding [1] | binding [2] | binding [3] | binding [4] |
| --- | --- | --- | --- | --- |
| MAVS Q145N (human, expressed in MEFs) (from UniProt Q7Z434 1-540) | binds |  |  |  |
| MAVS WT (human, expressed in MEFs) (from UniProt Q7Z434 1-540) | binds | binds | binds |  |
| MAVS 2ED (E155D/E457D; human, expressed in MEFs) (from UniProt Q7Z434 1-540) |  | binds |  |  |
| B1 |  |  |  | binds |
